# From the supplement of paper PMC7824004
# Some of the results follow. The data scatter; read single values as rough.
# Tested on: Candida albicans SN425
# Assay: biofilm OD600 B-score; higher = more biofilm (less inhibition)
# Details: 10 µM; assay detail: High-throughput adherence inhibition optical density biofilm assay with C. albicans SN425 in RPMI-1640/MOPS pH 7.0, 384-well plates. …
# Description: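 High-throughput adherence inhibition optical density biofilm assay with C. albicans SN425 in RPMI-1640/MOPS pH 7.0, 384-well plates. Compound (10 µM) was present only during the 90 min adherence step, then washed out, and the biofilm grew 24 h without compound. Biofilm was read as OD600 after removing the media. Scores are the difference from the mean in standard deviations and the plate B-score.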
row,SMILES,biofilm OD600 B-score
1,C=CCN(CC=C)C(=O)Nc1ccccc1,2.25
2,C=CCc1ccc(OCC(O)CN2CCN(CC)CC2)c(OC)c1 (stereo not given),0.418
3,CSc1nnc(-c2cccc(C)c2)n1N,-0.999
4,CSc1nc(N)c2c3c(sc2n1)CCC3,-0.798
5,CCn1c2ccccc2n2cc(C)nc12,2.12
6,CS(=O)(=O)Nc1ccccc1C(=O)NC1CCCCC1,-0.0212
7,CCOc1ccccc1N1CCN(C(=O)NC2CCCCC2)CC1,0.344
8,O=C(CN1CCOCC1)NCC1COc2ccccc2O1 (stereo not given),-1.02
9,OCCn1nc(-c2ccccc2)cc1-c1ccccc1,-3
10,O=C(NCc1cccnc1)c1ccc2ccccc2n1,0.174
11,COc1cc(Cl)c(S(=O)(=O)n2nc(C)cc2C)cc1Cl,0.567
12,CCN(CC)C(=O)c1sc2ccccc2c1Cl,2.88
13,c1cncc(CN2CCc3ccccc3C2)c1,1.06
14,COc1ccc(OC)c(Nc2nc(C)c(C(C)=O)s2)c1,0.0486
15,CC(C)c1ccc(C(=O)NCCCN2CCOCC2)cc1,3
16,COc1ccc(Cc2nn[nH]n2)cc1OC,-2.46
17,CN(C)c1nc(-c2ccccc2O)nc2ccccc12,-2.27
18,CSc1cccc(NS(=O)(=O)c2ccc(C)cc2)c1,3.4
19,CCN1CCN(C(=O)CCCc2ccccc2)CC1,0.182
20,Cc1occc1C(=O)Nc1ccc(CC(=O)O)cc1,-1.73

# Some of these compounds in order of molecular weight, rising:
row,SMILES,biofilm OD600 B-score
4,CSc1nc(N)c2c3c(sc2n1)CCC3,-0.798
14,COc1ccc(OC)c(Nc2nc(C)c(C(C)=O)s2)c1,0.0486
2,C=CCc1ccc(OCC(O)CN2CCN(CC)CC2)c(OC)c1 (stereo not given),0.418

# (listing goes on)

row,SMILES,biofilm OD600 B-score
1,COc1ccc(S(=O)(=O)NCCC2=CCCCC2)cc1OC,0.00596
2,CC(C)(C)NS(=O)(=O)c1ccccc1Cl,1.78
3,CCC(Oc1ccccc1)C(=O)Nc1ccccc1OC (stereo not given),1.76
4,CC1CN(C(=O)CSc2ccccc2)CC(C)O1 (stereo not given),-0.72
5,CCC(C)c1ccccc1NS(C)(=O)=O (stereo not given),-0.182
6,Cc1cc(C)c(OCCN(C)C)c(Cl)c1,-1.49
7,NC(=O)Oc1ccc(C2CCCCC2)cc1,1.41
8,COc1ccc(N2CCN(C(=O)c3cccc(OC)c3)CC2)cc1,-0.537
9,Cc1c(Cl)cccc1NC(=O)CCC(=O)O,0.467
10,O=C(O)C1C2C=CC(C2)C1C(=O)N1CCCC1 (stereo not given),0.636
11,COCc1cc(=O)n2[nH]c(-c3cccc(Br)c3)cc2n1,-1.86
12,O=C(Nc1cccc(Cl)c1)N1CCN(c2ccccc2F)CC1,0.787
13,CCC(C(=O)NCCO)c1ccccc1 (stereo not given),-4.1
14,CC1CN(CCC(=O)Nc2ccc3c(c2)OCO3)CC(C)O1 (stereo not given),0.0123
15,COc1cc(CN2CCCCCC2)cc(OC)c1OC,0.3
16,COCC(=O)Nc1ccc(S(N)(=O)=O)cc1,-0.028
17,Cc1ccccc1CSc1nnc(NC(=O)Nc2ccccc2F)s1,-0.0254
18,O=C(C1CCN(S(=O)(=O)c2ccc(F)cc2)CC1)N1CCCC1,0.639
19,COc1ccc(NC(=O)[C@@H]2C3C=CC(C3)[C@@H]2C(=O)O)cc1 (stereo not given in full),0.0522
20,Cc1occc1C(=O)NCc1ccc(F)cc1,0.208
